Test results published in patent US20110081298A1, “RATIOMETRIC BIOLUMINESCENT SENSOR FOR IMAGINING OXIDATIVE STRESS” (priority 2009, published 2011).
At least one structure is not confirmed: it was looked up by name or label, or the drawing left a doubt.

Tests used:
Type in all cases: cell-based, human
[1] = system: intracellular H2O2; experiment: Intracellular H2O2 by CM-H2DCFDA, HeLa-fR cells; conditions: dosage range of SSe, 24 hours
Method: Catalase and Allopurinol: HeLa-fR cells were plated at a density of 120,000 cells per well of a 12 well tissue culture plate (BD Biosciences). 24 hours later, the cells were incubated with 10 μM CM-H2DCFDA (Invitrogen) for 30 minutes at 37° C. Cells were then treated with PBS (pH 7.4), 50 U/mL catalase or 100 μM allopurinol for one hour. PBS (pH 7.4) or 10 μM STS was subsequently added to the cells, and all compounds remained on the cells for 24 hours. Intracellular H2O2 levels were determined by subjecting the cells to flow cytometry using a Guava EasyCyte (Guava Technologies). Analysis of flow cytometry data was accomplished using FlowJo software (Treestar).

[2] = system: caspases 3 and 7; experiment: Caspase-Glo 3/7 assay, HeLa-fR cells
Method: Caspase Activity: PCD was induced (as described above) 24 hours after plating 10,000 cells/well in white-walled 96 well tissue culture plates (BD Biosciences). After indicated treatment times, the Caspase 3/7-Glo Assay (Promega) was performed according to the manufacturer's protocol and bioluminescence measurements were obtained from and Infinite 200 plate reader (Tecan). All values were normalized to controls (i.e. pre-treatment values).

[3] = system: HeLa-fR cells; experiment: RLuc8/fLuc bioluminescence and RLuc8:fLuc ratio in HeLa-fR cells (Dual-Glo); conditions: HeLa-fR cells treated with the stress/cell death inducer alone
Method: To induce cellular stress, HeLa cells were treated with Staurosporine (STS), hydrogen peroxide, or hypoxanthine and xanthine oxidase for 0 to 24 hours at concentrations indicated in Table 7. Stressed and unstressed cells were also incubated with inhibitors that target various intracellular protein degradation/modification pathways. The specific compounds/proteins that were utilized as inhibitors and the respective final working concentrations are also listed in Table 7. Inhibitors were added to cells 1-hr prior to adding inducers of cellular stress and left in the media for the duration of the treatment. Analogous controls were conducted in the absence of stress inducers.
To induce caspase dependent PCD, cells were treated with staurosporine (STS), Doxorubicin (DOX), or camptothecin (CPT) (Sigma, St. Louis, Mo.) in complete medium at indicated concentrations and time points. To induce caspase-independent PCD, cells were treated with sodium selenite (SSe, MP Biomedicals, Solon, Ohio) or resveratrol (Res, Enzo Life Sciences, Plymouth Meeting, Pa.) in complete medium at indicated concentrations and time points. In studies where allopurinol (Allo, MP Biomedicals) is used as an inhibitor, it was added at a final concentration of 100 μM to cells in complete medium for 1 hour prior to the addition of the death-inducing drugs and remained in the medium throughout the study. […]

[4] = system: HeLa-fR cells; experiment: TUNEL assay for DNA fragmentation, HeLa-fR cells; conditions: HeLa-fR cells treated with the inducer alone
Method: DNA Fragmentation: PCD was induced (as described above) 24 hours after plating 300,000 cells/well in 6 well tissue culture plates (BD Biosciences). After indicated treatment times, TUNEL assays for DNA fragmentation were performed using the TUNEL/ApoBRDU assay kit (Invitrogen) according to the manufacturer's protocol. Percent DNA fragmentation was determined using flow cytometry on a Guava EasyCyte flow cytometer (Guava Technologies, Hayward, Calif.). Analysis of flow cytometry data was performed using FlowJo software (Treestar, Ashland, Oreg.).

With O=[Se](O)O [SSe, sodium selenite] the “intracellular levels of H2O2” value [1] was “increased appreciably”, the “caspase activity / caspase dependence of cell death” value [2] was “remained relatively inactive” and the “RLuc8:fLuc bioluminescent ratio” value [3] was “increased appreciably”. The “cell death / DNA fragmentation (TUNEL)” value [4] was “increase in DNA fragmentation”.
